Measurements taken from the odorant receptor screen of Mainland et al. (2015).
Where “and” joins values, the source holds several entries; their conditions need not be identical. Identical values can stand only once. This is one part of the list. Single wells; the ratio to wells without odorant was worked out here, and repeats agree poorly.

tested on: OR12D2 clone 1075; experiment: odorant receptor activation (CRE luciferase / Renilla) (fold of no-odor wells); higher = more activation; conditions: 100 µM

Row | SMILES | odorant receptor activation
1 | CCCCCC(=O)O [caproic acid] | 1.23
2 | C=C(C)C1CC=CCC1 (centres undefined) [r-limonene] | 1.19 and 1.41
3 | CC1CCC(C(C)C)C(O)C1 (single isomer, unassigned; (+)) [(+)-menthol] | 1.96
4 | O=C1CCCCC1 [Cyclohexanone] | 1.55
5 | CC(=O)c1ccccc1 [acetophenone] | 0.747
6 | COC(=O)c1ccccc1 [methyl benzoate] | 1.23
7 | O=CCc1ccccc1 [phenyl acetaldehyde] | 1.28
8 | C=CC(C)(O)CCC=C(C)C (centres undefined) [linalool] | 1.29
9 | CCCCO [1-butanol] | 2.81
10 | CC/C=C\CCO [cis-3-hexen-1-ol] | 0.939
11 | CC1=CCC(C(C)(C)O)CC1 (centres undefined) [terpineol] | 1.03
12 | CC(C)CCC(=O)O [4-methylvaleric acid] | 1.18
13 | CC1COCc2cc3c(cc21)C(C)(C)C(C)C3(C)C (centres undefined) [galaxolide] | 3.03
14 | CC1CCC(C(C)C)C(O)C1 (single isomer, unassigned; (-)) [(-)-menthol] | 2.24
15 | CC(C)(C)c1ccc(CCC=O)cc1 [bourgeonal] | 0.928
16 | CCCCCCCCOC(C)=O [octyl acetate] | 1.14
17 | CC1=NC(C)SC1C (centres undefined) | 1.03
18 | CC12C=CCC1C1CCC3CC(=O)CCC3(C)C1CC2 (centres undefined) [androstenone] | 1.27
19 | C=C(C)C1CC=C(C)C(=O)C1 (centres undefined) [r-carvone] | 1.02
20 | CC12C=CCC1C1CCC3=CC(=O)CCC3(C)C1CC2 (centres undefined) [androstadienone] | 5.18
21 | CCCCCCCOC(C)=O [heptyl acetate] | 1.24
22 | CC(C)C=O [isobutyraldehyde] | 1.33
23 | CC=Cc1ccc(O)c(OC)c1 [isoeugenol] | 1.05
24 | CCCC(=O)O [butyric acid] | 1.34
25 | CCCCCC(C)=O [2-heptanone] | 0.622
26 | CCCCCCC=O [heptaldehyde] | 1.1 and 1.22
27 | CCCCCCCC=CC=O [2-decenal] | 2.69

tested on: OR12D3 clone 1071; experiment: as above; conditions: 100 µM

Row | SMILES | odorant receptor activation
28 | CCCCCC(=O)O [caproic acid] | 0.984
29 | C=C(C)C1CC=CCC1 (centres undefined) [r-limonene] | 1.23 and 1.02
30 | CC1CCC(C(C)C)C(O)C1 (single isomer, unassigned; (+)) [(+)-menthol] | 4.8
31 | O=C1CCCCC1 [Cyclohexanone] | 0.597
32 | CC(=O)c1ccccc1 [acetophenone] | 1.07
33 | COC(=O)c1ccccc1 [methyl benzoate] | 0.799
34 | O=CCc1ccccc1 [phenyl acetaldehyde] | 1.36
35 | C=CC(C)(O)CCC=C(C)C (centres undefined) [linalool] | 1.48
36 | CCCCO [1-butanol] | 3.33
37 | CC/C=C\CCO [cis-3-hexen-1-ol] | 0.978
38 | CC1=CCC(C(C)(C)O)CC1 (centres undefined) [terpineol] | 0.9
39 | CC(C)CCC(=O)O [4-methylvaleric acid] | 2.53
40 | CC1COCc2cc3c(cc21)C(C)(C)C(C)C3(C)C (centres undefined) [galaxolide] | 2.26
41 | CC1CCC(C(C)C)C(O)C1 (single isomer, unassigned; (-)) [(-)-menthol] | 4.63
42 | CC(C)(C)c1ccc(CCC=O)cc1 [bourgeonal] | 0.965
43 | CCCCCCCCOC(C)=O [octyl acetate] | 1.13
44 | CC1=NC(C)SC1C (centres undefined) | 0.805
45 | CC12C=CCC1C1CCC3CC(=O)CCC3(C)C1CC2 (centres undefined) [androstenone] | 2.06
46 | C=C(C)C1CC=C(C)C(=O)C1 (centres undefined) [r-carvone] | 0.965
47 | CC12C=CCC1C1CCC3=CC(=O)CCC3(C)C1CC2 (centres undefined) [androstadienone] | 1.21
48 | CCCCCCCOC(C)=O [heptyl acetate] | 0.617
49 | CC(C)C=O [isobutyraldehyde] | 0.858
50 | CC=Cc1ccc(O)c(OC)c1 [isoeugenol] | 1.2
51 | CCCC(=O)O [butyric acid] | 1.23
52 | CCCCCC(C)=O [2-heptanone] | 0.313
53 | CCCCCCC=O [heptaldehyde] | 0.951 and 0.605
54 | CCCCCCCC=CC=O [2-decenal] | 5.27
